# Reference: PubChem BioAssay (EPA / NIEHS)
# The chains behind the UniProt entries cited, without tags or fusion partners. Where a name states a change or a piece, a line headed by the entry shows the natural chain unless it says otherwise.
# UniProt Q9UNQ0: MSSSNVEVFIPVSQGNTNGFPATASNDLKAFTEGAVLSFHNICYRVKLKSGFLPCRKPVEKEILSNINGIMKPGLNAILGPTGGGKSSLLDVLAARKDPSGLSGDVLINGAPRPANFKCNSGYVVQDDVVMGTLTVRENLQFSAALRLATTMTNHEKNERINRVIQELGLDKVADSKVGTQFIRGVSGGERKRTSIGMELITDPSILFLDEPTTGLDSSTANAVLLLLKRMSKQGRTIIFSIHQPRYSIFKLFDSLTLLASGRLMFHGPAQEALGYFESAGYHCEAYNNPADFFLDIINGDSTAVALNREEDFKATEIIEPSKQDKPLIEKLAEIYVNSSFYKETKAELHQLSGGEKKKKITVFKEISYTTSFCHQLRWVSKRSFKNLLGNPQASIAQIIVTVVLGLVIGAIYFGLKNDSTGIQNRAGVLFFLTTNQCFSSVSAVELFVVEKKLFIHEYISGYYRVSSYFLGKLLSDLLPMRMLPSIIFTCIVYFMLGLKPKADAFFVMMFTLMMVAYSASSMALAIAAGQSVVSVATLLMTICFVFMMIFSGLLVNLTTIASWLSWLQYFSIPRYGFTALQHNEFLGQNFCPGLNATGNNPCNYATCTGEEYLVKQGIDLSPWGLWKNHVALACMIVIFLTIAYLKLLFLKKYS
# The inconclusive results got no clear call from the source; some entries with a clear call stand among them for comparison. A potency beside an inconclusive call is a rough fit, not a confirmed value. Active and inactive are the calls of the source. The calls were made as follows: active = hit-call score of the fitted dose curve at least 0.9, where 1 is the maximum; inconclusive = response in the unintended direction; inactive = score below 0.9.
# Experiments:
# [1] = Tanguay_ZF_120hpf_PE_legacy: (Legacy) Oregon State University Tanguay Lab 120 Hour Post-fertilization zebrafish Assay for Pericardial Edema (AID 2283640);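 also: potency for increased incidence of pericardial edema versus DMSO baseline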
# In short: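 Scoring was binary, by brightfield microscopy at 120 hpf, and skipped where mortality occurred. Wild-type embryos were kept under sealed, foil-covered static exposure at 28C in 0.64% (vol/vol) DMSO.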
# [2] = Tanguay_ZF_120hpf_NC_legacy: (Legacy) Oregon State University Tanguay Lab 120 Hour Post-fertilization zebrafish Assay for Notochord and Tail Malformation (AID 2283656)
# In short: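 Dechorionated Tropical 5D wild-type zebrafish embryos, one per well from 6 hpf, statically exposed to 120 hpf at 28C in 0.64% DMSO final. Notochord distortion scored present/absent by brightfield; dead embryos excluded.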
# [3] = read-out: Broad substrate specificity ATP-binding cassette transporter ABCG2 (Homo sapiens) (UniProt Q9UNQ0); test: CLD_ABCG2_6hr: CellzDirect (CLD) Gene Expression Assay for ABC Transporter (ABCG2) at 6 hours (AID 2283660)
# In short: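 Primary human hepatocytes dosed daily with chemicals at multiple concentrations (0.2% DMSO vehicle), harvested 6 h after dosing. ABCG2 mRNA induction read by quantitative nuclease protection assay (qNPA) chemiluminescence; gain of signal fitted against DMSO baseline.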
# [4] = Tanguay_ZF_120hpf_CFIN_legacy: (Legacy) Oregon State University Tanguay Lab 120 Hour Post-fertilization zebrafish Assay for Caudal Fin Malformation (AID 2283649)
# In short: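 Binary brightfield scoring of caudal fin defects at 120 hpf after static, light-shielded exposure at 28C from 6 hpf. Tropical 5D embryos, chorion removed with pronase at 4 hpf, final DMSO 0.64%.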
# [5] = Tanguay_ZF_120hpf_OTIC_legacy: (Legacy) Oregon State University Tanguay Lab 120 Hour Post-fertilization zebrafish Assay for Otic Vesicle Malformation (AID 2283639)
# In short: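 Embryos from 5D wild-type adults exposed in plates; DMSO 0.64% v/v final. Sealed, light-protected, 28C, static to 120 hpf. Otic vesicle malformation recorded as binary endpoint; gain-of-signal fitted vs DMSO.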
# [6] = Tanguay_ZF_120hpf_SOMI_legacy: (Legacy) Oregon State University Tanguay Lab 120 Hour Post-fertilization zebrafish Assay for Somite Malformation (AID 2283647)
# In short: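 Binary somite-defect scoring at 120 hpf, omitted for embryos that died, in wild-type (Tropical 5D) zebrafish with chorion removed by pronase at 4 hpf; static exposure began 6 hpf, single embryos per well, 28C, 0.64% DMSO; fitted positive versus DMSO.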
# [7] = Tanguay_ZF_120hpf_PFIN_legacy: (Legacy) Oregon State University Tanguay Lab 120 Hour Post-fertilization zebrafish Assay for Pectoral Fin Malformation (AID 2283648);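 also: each larva judged yes or no for fin defect by brightfield with dead larvae skipped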
# In short: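 5D WT zebrafish; pronase dechorionation 4 hpf; 1 embryo/well at 6 hpf; static exposure to 120 hpf, 28C, sealed, foil-covered; final DMSO 0.64% v/v; 5 uM trimethyltin chloride positive control; fin defect scored yes/no.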
# [8] = Tanguay_ZF_120hpf_BRAI_legacy: (Legacy) Oregon State University Tanguay Lab 120 Hour Post-fertilization zebrafish Assay for Brain Malformation (AID 2283641)
# In short: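 Binary brightfield scoring of brain malformation at 120 hpf in Tropical 5D larvae held under static exposure at 28C (0.64% v/v DMSO), non-mortality endpoints skipped if dead. Positive control: 5uM trimethyltin chloride; fit versus DMSO.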
# [9] = Tanguay_ZF_120hpf_PIG_legacy: (Legacy) Oregon State University Tanguay Lab 120 Hour Post-fertilization zebrafish Assay for Pigmentation Malformation (AID 2283650)
# In short: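 Pronase dechorionation at 4 hpf; embryos plated at 6 hpf, one per well; static exposure, sealed and foil-covered, 28C, to 120 hpf; pigmentation read by brightfield, binary; DMSO 0.64% baseline, 5uM trimethyltin chloride positive control.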
# [10] = Tanguay_ZF_120hpf_SWIM_legacy: (Legacy) Oregon State University Tanguay Lab 120 Hour Post-fertilization zebrafish Assay for Swim Bladder Malformation (AID 2283654);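 also: swim bladder malformation in each larva scored yes or no under brightfield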
# In short: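 Embryos lacking chorions were exposed individually and statically to test chemical from 6 to 120 hpf at 28C, with 0.64% DMSO as vehicle. At 120 hpf, swim bladder malformation was recorded as present or absent by brightfield microscopy.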
# [11] = Tanguay_ZF_120hpf_TRUN_legacy: (Legacy) Oregon State University Tanguay Lab 120 Hour Post-fertilization zebrafish Assay for Truncated Body (AID 2283655)
# In short: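 Binary presence/absence of truncated body is recorded at 120 hpf by brightfield, with non-mortality endpoints skipped after death. Exposure is static from 6 hpf in sealed dark plates at 28C, using dechorionated wild-type zebrafish, 0.64% DMSO.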
# [12] = read-out: xenobiotic metabolism (CYP1A1), CYP1A1 (gene 1543); test: CLD_CYP1A1_6hr: CellzDirect (CLD) Gene Expression Assay for xenobiotic metabolism (CYP1A1) at 6 hours (AID 2283661);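 also: potency for transcript induction above DMSO vehicle baseline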
# In short: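 Primary human hepatocytes from two donors, compound versus 0.2% DMSO vehicle. CYP1A1 mRNA measured 6 h after dosing by quantitative nuclease protection assay with chemiluminescent read-out; induction fitted relative to DMSO, cytotoxicity flagged by microscopy.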
# [13] = Tanguay_ZF_120hpf_CIRC_legacy: (Legacy) Oregon State University Tanguay Lab 120 Hour Post-fertilization zebrafish Assay for Circulatory Malformation (AID 2283651)
# In short: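 Read-out: presence or absence of circulatory malformation at 120 hpf, scored by brightfield microscopy, fitted in the gain-of-signal direction against DMSO baseline. Wild-type 5D larvae were exposed from 6 hpf after enzymatic chorion removal.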
# [14] = read-out: ABC Transporter (ABCB1), ABCB1 (gene 5243); test: CLD_ABCB1_6hr: CellzDirect (CLD) Gene Expression Assay for ABC Transporter (ABCB1) at 6 hours (AID 2283659)
# In short: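 Primary human hepatocytes (two donor preparations) dosed daily for two days with chemicals at multiple concentrations, 0.2% DMSO vehicle; harvested 6 h post-dose. ABCB1 mRNA induction quantified by qNPA chemiluminescence; gain-of-signal fitted versus DMSO.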
smiles,measurement,setting,value
CCSC(=O)N1CCCCCC1,AC50,[1],inconclusive: 90.4 µM
same,AC50,[2],inconclusive: 86.8 µM
same,AC50,[3],inconclusive: 5.02 µM
CC(c1ccc(O)cc1)(c1ccc(O)cc1)c1ccc(O)cc1,AC50,[1],inconclusive: 1.42 µM
same,outcome,[4],inactive
same,outcome,[2],inactive
Cc1cccc(N)c1,AC50,[5],inconclusive: 1.24 µM
same,outcome,[6],inactive
same,AC50,[7],inconclusive: 203 µM
O=C(N[C@H]1CN2CCC1CC2)c1ccc2c(c1)OCCO2,outcome,[5],inactive
same,outcome,[2],inactive
Clc1ccc(C(c2ccc(Cl)cc2)C(Cl)Cl)cc1,AC50,[8],inconclusive: 0.973 µM
same,AC50,[7],inconclusive: 7.74 µM
same,AC50,[4],inconclusive: 175 µM
same,AC50,[9],inconclusive: 35.2 µM
O=C(Oc1ccc(Br)cc1)N1CCN2CCC1CC2,outcome,[6],inactive
same,outcome,[2],inactive
CCC(C)c1cc([N+](=O)[O-])cc([N+](=O)[O-])c1O (stereo unspecified),outcome,[4],inactive
same,outcome,[9],inactive
same,outcome,[10],inactive
Cc1ccc([N+](=O)[O-])cc1C,AC50,[4],inconclusive: 1.84 µM
CCCN(CCOc1c(Cl)cc(Cl)cc1Cl)C(=O)n1ccnc1,outcome,[4],inactive
same,AC50,[3],inconclusive: 3.77 µM
CC(C)NC(=O)N1CC(=O)N(c2cc(Cl)cc(Cl)c2)C1=O,outcome,[4],inactive
same,AC50,[11],inconclusive: 201 µM
same,outcome,[3],inactive
same,AC50,[12],active: 8.11 µM
CS(=O)(=O)c1cc(C(F)(F)F)ccc1C(=O)c1cnoc1C1CC1,AC50,[8],inconclusive: 5.14 µM
same,AC50,[2],inconclusive: 57.9 µM
same,AC50,[3],inconclusive: 1.9 µM
Nc1ccc(N=Nc2ccccc2)cc1,outcome,[7],inactive
same,AC50,[4],inconclusive: 201 µM
same,AC50,[9],inconclusive: 0.00184 µM
same,AC50,[2],inconclusive: 99.1 µM
O=C(Nc1ccccc1-c1ccc(Cl)cc1)c1cccnc1Cl,outcome,[7],inactive
same,AC50,[4],inconclusive: 202 µM
same,AC50,[2],inconclusive: 133 µM
same,AC50,[3],inconclusive: 20 µM
CCOP(=S)(OCC)SCSCC,outcome,[6],inactive
same,outcome,[7],inactive
same,outcome,[13],inactive
CCN1CCC2(CC1)COc1cc3c(cc12)N(C(=O)c1ccc(-c2ccc(-c4nnc(C)o4)cc2C)cc1)CC3,AC50,[4],inconclusive: 7.74 µM
O=C1CCCO1,AC50,[8],inconclusive: 42.5 µM
same,AC50,[2],inconclusive: 39 µM
CSC(C)(C)C=NO,outcome,[4],inactive
CCC(=O)O[C@H]1CC[C@H]2[C@@H]3CCC4=CC(=O)CC[C@]4(C)[C@H]3CC[C@]12C,outcome,[4],inactive
CC[C@H](C)[C@H]1O[C@]2(C=C[C@@H]1C)C[C@@H]1C[C@@H](C/C=C(\C)[C@@H](O[C@H]3C[C@H](OC)[C@@H](O[C@H]4C[C@H](OC)[C@@H](NC)[C@H](C)O4)[C@H](C)O3)[C@@H](C)/C=C/C=C3\CO[C@@H]4[C@H](O)C(C)=C[C@@H](C(=O)O1)[C@]34O)O2,AC50,[6],inconclusive: 1.89 µM
same,AC50,[4],inconclusive: 8.55 µM
same,AC50,[9],inconclusive: 2.63 µM
same,AC50,[3],active: 29.5 µM
same,AC50,[12],inconclusive: 2 µM
N#CCCCCC#N,outcome,[4],inactive
same,AC50,[9],inconclusive: 122 µM
same,outcome,[10],inactive
CCOP(=S)(Oc1cnc(C(C)(C)C)nc1)OC(C)C (stereo unspecified),AC50,[4],inconclusive: 110 µM
same,outcome,[13],inactive
same,outcome,[3],inactive
CC1(C)C(C=C(Cl)Cl)C1C(=O)OC(C#N)c1cccc(Oc2ccccc2)c1 (stereo unspecified),AC50,[7],active: 0.994 µM
same,outcome,[10],inactive
same,AC50,[2],inconclusive: 25.7 µM
same,AC50,[12],active: 2.78 µM
CNC(=O)ON=CC(C)(C)SC,outcome,[8],inactive
same,outcome,[10],inactive
same,AC50,[14],inconclusive: 20 µM
same,AC50,[3],inconclusive: 0.000395 µM
COP(=O)(OC)OC(Br)C(Cl)(Cl)Br (stereo unspecified),AC50,[4],inconclusive: 35 µM
same,AC50,[9],inconclusive: 2.96 µM
same,AC50,[10],inconclusive: 45.2 µM
same,outcome,[2],inactive
O=C(Nc1ccc2[nH]ccc2c1)c1cc2cc(F)ccc2n1Cc1cccc(F)c1,outcome,[4],inactive
COP(=S)(OC)Oc1ccc(SC)c(C)c1,AC50,[6],inconclusive: 69.4 µM
same,outcome,[2],inactive
same,AC50,[3],inconclusive: 20 µM
O=S1OCC2C(CO1)C1(Cl)C(Cl)=C(Cl)C2(Cl)C1(Cl)Cl (stereo unspecified),outcome,[8],inactive
same,outcome,[10],inactive
same,AC50,[2],inconclusive: 0.00707 µM
same,AC50,[12],inconclusive: 20 µM
CCN(CC)C(=O)C(C)Oc1cccc2ccccc12 (stereo unspecified),outcome,[7],inactive
same,AC50,[14],inconclusive: 20 µM
same,AC50,[3],inconclusive: 20 µM
COc1ccc(O)c(C(C)(C)C)c1,outcome,[4],inactive
same,AC50,[13],inconclusive: 8.64 µM
O=C(O)C(F)(F)C(F)(F)C(F)(F)C(F)(F)C(F)(F)F,AC50,[6],inconclusive: 3.78 µM
CCCSP(=O)(OCC)SCCC,AC50,[8],inconclusive: 45.8 µM
same,AC50,[12],active: 1.9 µM
CCOS(=O)(=O)OCC,outcome,[7],inactive
same,AC50,[9],inconclusive: 3.25 µM
O=C(NC(=O)c1c(F)cccc1F)Nc1cc(Cl)c(OC(F)(F)C(F)F)c(Cl)c1,outcome,[8],inactive
same,AC50,[9],inconclusive: 48.2 µM
same,outcome,[13],inactive
same,AC50,[10],inconclusive: 64.6 µM
CC12CC1(C)C(=O)N(c1cc(Cl)cc(Cl)c1)C2=O (stereo unspecified),outcome,[6],inactive
same,AC50,[7],inconclusive: 1.63 µM
same,AC50,[4],inconclusive: 6.67 µM
same,outcome,[9],inactive
same,outcome,[2],inactive

# Part of the list above, bar-delimited:
smiles | measurement | setting | value
CC(c1ccc(O)cc1)(c1ccc(O)cc1)c1ccc(O)cc1 | outcome | [4] | inactive
same | outcome | [2] | inactive
Cc1cccc(N)c1 | AC50 | [5] | inconclusive: 1.24 µM
same | outcome | [6] | inactive
same | AC50 | [7] | inconclusive: 203 µM
O=C(N[C@H]1CN2CCC1CC2)c1ccc2c(c1)OCCO2 | outcome | [5] | inactive
same | outcome | [2] | inactive
